# Measurements taken from patent publication US20250121082A1 (SHANDONG BOAN BIOTECHNOLOGY, published 2025).
# These are yes or no findings as the source states them, for the method shown. Some entries that bind do so weakly or less than the wild type.
# T1: Monkey CD228 protein (monkey)
# T1 sequence: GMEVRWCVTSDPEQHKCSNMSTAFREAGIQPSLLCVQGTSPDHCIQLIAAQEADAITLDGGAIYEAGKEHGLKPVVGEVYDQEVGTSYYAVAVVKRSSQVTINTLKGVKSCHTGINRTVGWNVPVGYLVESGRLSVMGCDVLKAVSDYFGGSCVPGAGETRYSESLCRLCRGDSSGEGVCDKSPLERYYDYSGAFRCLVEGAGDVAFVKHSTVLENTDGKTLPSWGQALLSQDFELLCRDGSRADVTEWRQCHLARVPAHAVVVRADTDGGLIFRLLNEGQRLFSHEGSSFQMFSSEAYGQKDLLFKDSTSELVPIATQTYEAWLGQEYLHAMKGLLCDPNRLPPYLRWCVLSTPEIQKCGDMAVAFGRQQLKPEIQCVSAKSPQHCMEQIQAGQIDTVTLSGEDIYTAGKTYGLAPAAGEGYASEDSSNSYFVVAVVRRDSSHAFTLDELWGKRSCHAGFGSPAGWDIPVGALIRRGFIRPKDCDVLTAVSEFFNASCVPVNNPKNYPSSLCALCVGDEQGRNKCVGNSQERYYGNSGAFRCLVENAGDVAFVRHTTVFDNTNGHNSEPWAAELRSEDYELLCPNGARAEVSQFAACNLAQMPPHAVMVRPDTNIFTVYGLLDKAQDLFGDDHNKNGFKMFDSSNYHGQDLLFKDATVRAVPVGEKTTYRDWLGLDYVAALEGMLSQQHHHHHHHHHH
# T2: Human CD228 protein (human, UniProt P08582 20-708, limits assumed)
# T2 construct: Recombinant protein made in CHO cells, purified over a Ni column; The printed entry begins with the leader (MRGPSG...) and ends with ten His; also called hCD228; CD228-His protein
# T2 sequence: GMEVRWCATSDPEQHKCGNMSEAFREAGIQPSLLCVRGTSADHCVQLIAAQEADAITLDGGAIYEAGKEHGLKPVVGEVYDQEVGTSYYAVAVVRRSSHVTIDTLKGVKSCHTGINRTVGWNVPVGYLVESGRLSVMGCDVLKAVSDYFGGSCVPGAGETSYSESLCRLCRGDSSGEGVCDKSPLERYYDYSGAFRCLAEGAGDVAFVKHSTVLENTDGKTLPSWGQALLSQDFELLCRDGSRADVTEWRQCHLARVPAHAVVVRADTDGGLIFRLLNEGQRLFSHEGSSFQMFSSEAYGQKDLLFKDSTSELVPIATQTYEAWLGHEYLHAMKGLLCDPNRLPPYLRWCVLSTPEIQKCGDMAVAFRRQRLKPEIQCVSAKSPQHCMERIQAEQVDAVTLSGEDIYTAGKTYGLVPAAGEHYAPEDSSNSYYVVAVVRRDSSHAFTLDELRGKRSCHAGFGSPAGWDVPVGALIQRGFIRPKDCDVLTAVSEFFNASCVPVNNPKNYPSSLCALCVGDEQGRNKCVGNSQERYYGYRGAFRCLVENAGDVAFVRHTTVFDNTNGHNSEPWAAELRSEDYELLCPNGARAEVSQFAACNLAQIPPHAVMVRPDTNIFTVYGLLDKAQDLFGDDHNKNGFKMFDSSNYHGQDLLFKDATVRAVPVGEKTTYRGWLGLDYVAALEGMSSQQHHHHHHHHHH
# B1: CA518 (antibody, human IgG1, kappa, V domains shown)
# VH: EVQLVESGGGVVQPGRSLRLSCAASGFTFSSYAMHWVRQAPGKGLEWVAVISYDGSNKYHADSVKGRFTISRDNSKNTLFLQMNSLRAEDTAVYYCVRDVYHYGSRSPYYYGMDVWGQGTTVTVSS
# VL: DIQMTQSPSSVSASVGDRVTITCRASQGISSWLAWYQQKPGKAPKLLIYAASSLQSGVPSRFSGSGSGTDFTLTISSLQPEDVATYYCQKYNSAPFTFGPGTKVDIKR
# notes: Intact IgG1
# B2: reference antibody hL49 (antibody, human IgG1, kappa, V domains shown)
# VH: QVQLQESGPGLVKPSETLSLTCTVSGDSITSGYWNWIRQPPGKGLEYIGYISDSGITYYNPSLKSRVTISRDTSKNQYSLKLSSVTAADTAVYYCARRTLATYYAMDYWGQGTLVTVSS
# VL: DFVMTQSPLSLPVTLGQPASISCRASQSLVHSDGNTYLHWYQQRPGQSPRLLIYRVSNRFSGVPDRFSGSGSGTDFTLKISRVEAEDVGVYYCSQSTHVPPTFGQGTKLEIKR
# notes: also called H149; hL49 analogy
# B3: CA149 (antibody, human IgG1, kappa, V domains shown)
# VH: EVQLVESGGGVVQPGRSLRLSCAASGFTFSSYAMHWVRQAPGKGLEWVAVISFDGSNKYYTDSVKGRFTISRDNSKNTLYLQMNSLRAEDTAVYYCAREVPYYYGSGPFDYWGQGTLVTVSS
# VL: EIVLTQSPATLSVSPGERATLSCRASQSVSSNLAWYQQKPGQAPRHLIDGASSRASGIPDRFSGSGSGTDFTLTISRLEPEDFAVYYCQQYGSSPPFTFGPGTKVDIKR
# notes: Intact IgG1; also called CA149 antibody
# What was measured:
# [1] = biological target: T1, Monkey CD228 protein (monkey); experiment: SPR, BIAcore 8K
# Human CD228 protein [2] = biological target: T2, Human CD228 protein; experiment: SPR, BIAcore 8K
# Human CD228 protein [3] = biological target: T2, Human CD228 protein; experiment: ELISA, plate coated with human CD228 protein
# Description: Human CD228 protein (prepared by Boan, 20201014, SEQ ID NO: 41) was diluted to 0.1 μg/mL with a carbonate-buffered saline (hereinafter referred to as CBS) at pH 9.6. Microplates were coated with the protein at 100 μL/well, and incubated at 4° C. overnight. After washing, the microplates were blocked with skimmed milk powder. The plates were washed, before antibodies diluted with PBST (phosphate-buffered saline, Solarbio P1010, +0.05% Tween20) were added at 100 μL/well. The diluted antibodies were intact antibodies comprising Fc, Fab and the constant region serially 3-fold diluted from 0.1 μg/mL to 8 concentrations with PBST. After washing the plates, goat anti-human IgG (H+L)/HRP (diluted at 1:5000, KPL, 474-1006) was added at 100 μL/well, and the plates were incubated at 37° C. for 1 h. After washing the plates, TMB (Beijing Makewonderbio, 1001) was added at 100 μL/well for chromogenesis, and after 10 min, 50 μL of 2 M H₂SO₄ was added to stop the chromogenesis. OD450 was measured on a microplate reader. The antibody hL49 targeting CD228 from Seagen was used as a reference antibody in this study and the following studies.
# Human CD228 protein [4] = biological target: T2, Human CD228 protein; experiment: ELISA, plate coated with human CD228 protein at 0.1 ug/mL, goat anti-human IgG-HRP, OD450
Binder,binding [1],binding (Human CD228 protein [2]),binding (Human CD228 protein [3]),binding (Human CD228 protein [4])
B1,binds,binds,binds,binds
B2,–,–,binds,binds
B3,binds,–,–,–
